Assay results: paper PMC5799190
Results are given in words; binding and its absence hold for the method and conditions named. Some binding calls cover weakened binding; strength is not graded here.

Molecular target: T1, E. coli ArfA (E. coli) (UniProt P36675)
T1 sequence: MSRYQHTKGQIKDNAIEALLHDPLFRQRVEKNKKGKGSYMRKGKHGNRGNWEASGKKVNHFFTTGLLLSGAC
Test: cryo-EM structure; E. coli 70S ribosomes incubated with nonstop mRNA (6 uM), tRNAfMet, ArfA and RF2^m (12 uM each) in buffer A (20 mM Hepes-KOH pH 7.5, 15 mM magnesium acetate, 150 mM potassium acetate, 4 mM beta-mercaptoethanol, 2 mM spermidine, 0.05 mM spermine), 30 min at 37 °C; single-particle cryoEM; both purified

B1: E. coli RF2 with GGQ motif methylated (RF2^m) (protein, UniProt P07012 1-365)
chain: MFEINPVNNRIQDLTERSDVLRGYLDYDAKKERLEEVNAELEQPDVWNEPERAQALGKERSSLEAVVDTLDQMKQGLEDVSGLLELAVEADDEETFNEAVAELDALEEKLAQLEFRRMFSGEYDSADCYLDIQAGSGGTEAQDWASMLERMYLRWAESRGFKTEIIEESEGEVAGIKSVTIKISGDYAYGWLRTETGVHRLVRKSPFDSGGRRHTSFSSAFVYPEVDDDIDIEINPADLRIDVYRTSGAGGQHVNRTESAVRITHIPTGIVTQCQNDRSQHKNKDQAMKQMKAKLYELEMQKKNAEKQAMEDNKSDIGWGSQIRSYVLDDSRIKDLRTGVETRNTQAVLDGSLDQFIEASLKAGL
modifications: N5-methylglutamine at Q252 (the glutamine of the GGQ motif)
Which binding does the source give for B1 here?
Its binding is “binds”.
